Data: article PMC9361823
Residue numbers refer to the chain shown, from its start. In names and notes the source's numbering stands. These are yes or no findings as the source states them, for the method shown. Some entries that bind do so weakly or less than the wild type.

How the values were obtained:
Assay in all cases: SEC; α (His6) and untagged β co-expressed in E. coli and co-purified by metal chelation and gel filtration (Superdex200; 20 mM Tris-HCl, 0.2 M NaCl, 10% glycerol, pH 7.4); 150- to 200-kDa complex in solution (Fig. S1; the text does not say how the size was estimated); both purified
[1] = target: α-subunit of CumDO-O (CumA1) L241A (Pseudomonas fluorescens IP01) (UniProt Q51743)
[2] = target: α-subunit of CumDO-O (CumA1) E180A (Pseudomonas fluorescens IP01) (UniProt Q51743)
[3] = target: α-subunit of CumDO-O (CumA1) K117A (Pseudomonas fluorescens IP01) (UniProt Q51743)
[4] = target: α-subunit of CumDO-O (CumA1) D158A (Pseudomonas fluorescens IP01) (UniProt Q51743)
[5] = target: α-subunit of CumDO-O (CumA1) D253A (Pseudomonas fluorescens IP01) (UniProt Q51743)
[6] = target: α-subunit of CumDO-O (CumA1) (Pseudomonas fluorescens IP01) (UniProt Q51743)
[7] = target: α-subunit of CumDO-O (CumA1) L35A (Pseudomonas fluorescens IP01) (UniProt Q51743)
[8] = target: α-subunit of CumDO-O (CumA1) W159A (Pseudomonas fluorescens IP01) (UniProt Q51743)
[9] = target: α-subunit of CumDO-O (CumA1) K258A (Pseudomonas fluorescens IP01) (UniProt Q51743)
[10] = target: α-subunit of CumDO-O (CumA1) R407A (Pseudomonas fluorescens IP01) (UniProt Q51743)
[11] = target: α-subunit of CumDO-O (CumA1) K33A (Pseudomonas fluorescens IP01) (UniProt Q51743)
[12] = target: α-subunit of CumDO-O (CumA1) K141A (Pseudomonas fluorescens IP01) (UniProt Q51743)
[13] = target: α-subunit of CumDO-O (CumA1) R39A (Pseudomonas fluorescens IP01) (UniProt Q51743)
[14] = target: α-subunit of CumDO-O (CumA1) L162A (Pseudomonas fluorescens IP01) (UniProt Q51743)

Measured: binding

B1: β-subunit of CumDO-O (CumA2) (protein, UniProt Q51744 1-186)
chain: MTSADLTKPIEWPEMPVSLELQNAVEQFYYREAQLLDYQNYEAWLALLTQDIQYWMPIRTTHTSRNKAMEYVPPGGNAHFDETYESMRARIRARVSGLNWTEDPPSRSRHIVSNVIVRETESAGTLEVSSAFLCYRNRLERMTDIYVGERRDILLRVSDGLGFKIAKRTILLDQSTITANNLSQFF
binds: all assays above

B2: β-subunit of CumDO-O (CumA2) R65A (protein, UniProt Q51744 1-186)
chain: B1 chain with R65A
binds: [6]

B3: β-subunit of CumDO-O (CumA2) L98A (protein, UniProt Q51744 1-186)
chain: B1 chain with L98A
binds: [6]

B4: β-subunit of CumDO-O (CumA2) W100A (protein, UniProt Q51744 1-186)
chain: B1 chain with W100A
binds: [6]
